Reference: the supplement of paper PMC6411743
± gives the standard deviation of the averaged measurements. This is a selection; strong and weak results do not stand in their true shares.

What was measured:
Test in all cases: NP40-soluble protein abundance relative to vehicle (solubility fold change) (ratio); higher = more soluble protein in presence of ATP
[1] = target: T1, B0QYK0 and related entries (UniProt Q01844)
T1 sequence (whole entry): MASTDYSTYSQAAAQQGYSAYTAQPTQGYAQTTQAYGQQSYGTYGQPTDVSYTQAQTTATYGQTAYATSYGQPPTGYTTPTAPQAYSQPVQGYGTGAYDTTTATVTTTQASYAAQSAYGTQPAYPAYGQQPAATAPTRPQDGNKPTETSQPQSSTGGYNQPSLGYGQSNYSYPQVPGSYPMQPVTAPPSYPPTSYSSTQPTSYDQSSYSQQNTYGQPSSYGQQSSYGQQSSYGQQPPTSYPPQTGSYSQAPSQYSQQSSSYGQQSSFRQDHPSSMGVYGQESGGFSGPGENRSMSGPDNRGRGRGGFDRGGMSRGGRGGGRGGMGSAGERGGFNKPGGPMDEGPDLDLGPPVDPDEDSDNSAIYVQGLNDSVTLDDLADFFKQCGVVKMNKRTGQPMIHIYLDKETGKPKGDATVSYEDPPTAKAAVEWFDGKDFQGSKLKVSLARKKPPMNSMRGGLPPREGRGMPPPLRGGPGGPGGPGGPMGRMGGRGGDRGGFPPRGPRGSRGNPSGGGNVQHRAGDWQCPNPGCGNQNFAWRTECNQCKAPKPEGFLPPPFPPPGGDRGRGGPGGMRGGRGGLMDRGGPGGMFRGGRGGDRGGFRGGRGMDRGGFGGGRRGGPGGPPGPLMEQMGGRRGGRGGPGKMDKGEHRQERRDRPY
Outline: (§1)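 In three independent experiments, Jurkat crude lysate made by Dounce homogenisation was treated for 10 min at room temperature and then 3 min at 37 °C with eight concentrations ranging from 0.1 to 10 mM. It was then solubilised with 0.8% NP40 plus benzonase for 60 min at 4 °C and ultracentrifuged. The supernatant was TMT-labelled for LC-MS/MS, and each value is the fold change against the detergent-processed vehicle for the same replicate, using vsn-normalised intensities.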

[2] = target: T2, B4DH95 and related entries (UniProt Q6P9H5)
T2 sequence (whole entry): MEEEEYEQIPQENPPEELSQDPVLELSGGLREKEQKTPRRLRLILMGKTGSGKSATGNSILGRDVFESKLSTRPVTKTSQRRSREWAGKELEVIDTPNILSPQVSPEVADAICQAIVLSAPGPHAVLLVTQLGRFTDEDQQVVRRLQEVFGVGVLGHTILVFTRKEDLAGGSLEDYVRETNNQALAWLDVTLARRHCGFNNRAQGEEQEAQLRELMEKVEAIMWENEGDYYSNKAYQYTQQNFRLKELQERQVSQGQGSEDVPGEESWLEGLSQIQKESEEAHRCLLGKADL
Outline: as §1

[3] = target: T3, B4DI03 and related entries (UniProt Q9BY50)
T3 sequence (whole entry): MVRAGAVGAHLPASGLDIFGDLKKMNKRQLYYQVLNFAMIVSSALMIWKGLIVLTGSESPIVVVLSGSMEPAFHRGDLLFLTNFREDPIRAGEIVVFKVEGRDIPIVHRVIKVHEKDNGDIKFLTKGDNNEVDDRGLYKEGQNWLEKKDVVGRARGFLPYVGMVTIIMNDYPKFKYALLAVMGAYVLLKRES
Outline: as §1

[4] = target: T4, B5MDU6 and related entries (UniProt Q9H6V9)
T4 sequence (whole entry): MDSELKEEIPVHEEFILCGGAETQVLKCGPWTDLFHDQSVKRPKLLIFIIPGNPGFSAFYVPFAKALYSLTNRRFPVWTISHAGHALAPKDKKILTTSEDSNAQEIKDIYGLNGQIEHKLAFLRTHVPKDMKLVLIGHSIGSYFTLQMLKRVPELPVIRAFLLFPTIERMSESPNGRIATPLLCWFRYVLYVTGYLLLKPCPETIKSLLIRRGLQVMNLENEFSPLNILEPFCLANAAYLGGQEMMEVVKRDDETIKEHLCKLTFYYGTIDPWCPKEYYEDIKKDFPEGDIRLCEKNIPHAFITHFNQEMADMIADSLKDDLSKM
Outline: as §1

## Nc1ncnc2c1ncn2[C@@H]1O[C@H](COP(=O)(O)OP(=O)(O)OP(=O)(O)O)[C@@H](O)[C@H]1O [adenosine triphosphate]
[1]; concentration: 1mM
  NP40-soluble protein abundance: 0.988 ± 0.036
[1]; concentration: 2mM
  NP40-soluble protein abundance: 0.963 ± 0.025
[1]; concentration: 4mM
  NP40-soluble protein abundance: 0.929 ± 0.016
[1]; concentration: 6mM
  NP40-soluble protein abundance: 1.03 ± 0.011
[1]; concentration: 8mM
  NP40-soluble protein abundance: 0.965 ± 0.048
[1]; concentration: 10mM
  NP40-soluble protein abundance: 0.958 ± 0.038
[2]; concentration: 1mM
  NP40-soluble protein abundance: 0.969 ± 0.052
[2]; concentration: 2mM
  NP40-soluble protein abundance: 0.989 ± 0.026
[2]; concentration: 4mM
  NP40-soluble protein abundance: 0.979 ± 0.038
[2]; concentration: 6mM
  NP40-soluble protein abundance: 0.949 ± 0.063
[2]; concentration: 8mM
  NP40-soluble protein abundance: 0.973 ± 0.037
[2]; concentration: 10mM
  NP40-soluble protein abundance: 0.966 ± 0.025
[3]; concentration: 1mM
  NP40-soluble protein abundance: 0.939 ± 0.08
[3]; concentration: 2mM
  NP40-soluble protein abundance: 0.961 ± 0.014
[3]; concentration: 4mM
  NP40-soluble protein abundance: 0.912 ± 0.041
[3]; concentration: 6mM
  NP40-soluble protein abundance: 0.973 ± 0.054
[3]; concentration: 8mM
  NP40-soluble protein abundance: 0.91 ± 0.07
[3]; concentration: 10mM
  NP40-soluble protein abundance: 0.928 ± 0.028
[4]; concentration: 1mM
  NP40-soluble protein abundance: 1.01 ± 0.073
[4]; concentration: 2mM
  NP40-soluble protein abundance: 1.03 ± 0.11
[4]; concentration: 4mM
  NP40-soluble protein abundance: 0.968 ± 0.055
[4]; concentration: 6mM
  NP40-soluble protein abundance: 0.96 ± 0.15
[4]; concentration: 8mM
  NP40-soluble protein abundance: 1.02 ± 0.051
[4]; concentration: 10mM
  NP40-soluble protein abundance: 1.02 ± 0.091
